# Measured values: article doi:10.1101/2020.04.17.028118
# Numbering of substitutions follows the chain as printed. These are yes or no findings as the source states them, for the method shown. In cells and extracts the contact can be indirect. A yes stands for co-enrichment or nearness to the bait. Other partners may have been found. For some of these results: Where a sequence is shown, tags or fusion partners need not be part of it.
# T1: Dpb11-K55A (bait of the affinity purification with MS) (S. cerevisiae) (UniProt P47027)
# T1 sequence: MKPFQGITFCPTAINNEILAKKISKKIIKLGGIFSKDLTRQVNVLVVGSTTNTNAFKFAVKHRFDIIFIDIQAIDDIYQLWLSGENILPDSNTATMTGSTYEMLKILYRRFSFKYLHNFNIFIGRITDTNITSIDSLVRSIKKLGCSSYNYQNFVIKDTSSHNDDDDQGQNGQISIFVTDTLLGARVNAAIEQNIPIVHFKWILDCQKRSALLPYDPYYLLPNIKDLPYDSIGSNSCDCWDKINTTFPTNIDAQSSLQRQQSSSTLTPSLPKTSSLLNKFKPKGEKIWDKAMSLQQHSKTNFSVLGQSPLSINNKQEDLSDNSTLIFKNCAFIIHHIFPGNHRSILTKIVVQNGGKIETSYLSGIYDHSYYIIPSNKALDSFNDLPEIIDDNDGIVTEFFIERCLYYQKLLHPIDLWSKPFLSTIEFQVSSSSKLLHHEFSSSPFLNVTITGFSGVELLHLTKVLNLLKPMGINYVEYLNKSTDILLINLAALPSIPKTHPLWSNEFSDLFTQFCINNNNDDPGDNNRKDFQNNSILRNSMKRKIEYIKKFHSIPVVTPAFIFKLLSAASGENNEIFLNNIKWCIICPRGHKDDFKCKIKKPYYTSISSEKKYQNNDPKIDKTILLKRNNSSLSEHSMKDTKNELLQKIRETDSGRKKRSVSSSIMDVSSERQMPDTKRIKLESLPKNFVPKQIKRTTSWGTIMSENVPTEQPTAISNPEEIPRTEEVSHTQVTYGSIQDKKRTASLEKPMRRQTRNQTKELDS
# T2: Dpb11 (tagged bait, overexpressed from the ADH1 promoter) (S. cerevisiae) (UniProt P47027)
# T2 sequence: T1 sequence with A55K
# B1: Sld2 (protein, UniProt P34252 1-453)
# chain: MYSFELDKLKIELKTWEHDFIDKNKREPTRDDIKSLRTVRQMYKQYSTLKKKQSLQRQKVDTQESVELPAHKKDHDEVVEIGPTPQVYGKAISIFDMNLSPIKPIYMTFTNNIDVNNDNSKTISNESSPRKTILLKSSPADRTLVAEPISSVKRQLNFQMLNASSTRTPTSSPCKNRNGKLVEIKKCSPTINPPLESGKPSGYYGPNSPLKLDEENIHLNISLNSSTKRRLQIAYPSLQKTPSKDQADISTSFSPSPLIRRPLTKSLIELAREHTEIVKEFGVLQEEDIEEEEEGEEGENGYDEKNHEDDFGLEDELIRPKVVKDIFQEDDDNDDSQAREDTFIRKRPKRRKVIRRLRDNDPETETAGFERDVHKELVKLKRRKVAEFLGSTSQISDTEFEHDPEASSGVVSSEQKPTAKRKGRKKYNLVSNNFRRLKLPKKNRFSNGRWGRR
# B2: Ddc1 (protein, UniProt Q08949 1-612)
# chain: MSFKATITESGKQNIWFRAIYVLSTIQDDIKITVTTNELIAWSMNETDTTLCQVRFQKSFFEEYEFKPHEIVFGENGVQVIEDTYGNSHKLYSFRVNGRHLTTISRKPDGDGIKSFTIAVNNTSTCPESLANRLIVVIEMDSLIVKEYCPQFQPIKYDPIIINLKYKRRFLDVFGTAASDRNPQEPLDPKLLDVFTNTERELTSALFNEEVESDIRKRNQLTAADEINYICCNSTLLKNFLDNCNVNVTDEVKLEINVHRLSITAFTKAVYGKNNDLLRNALSMSNTISTLDLEHYCLFTTIEDEKQDKRSHSKRREHMKSIIFKLKDFKNFITIGPSWKTTQDGNDNISLWFCHPGDPILMQMQKPGVKLELVEVTDSNINDDILEGKFIKTAISGSKEEAGLKDNKESCESPLKSKTALKRENLPHSVAGTRNSPLKVSYLTPDNGSTVAKTYRNNTARKLFVEEQSQSTNYEQDKRFRQASSVHMNMNREQSFDIGTTHEVACPRNESNSLKRSIADICNETEDPTQQSTFAKRADTTVTWGKALPAADDEVSCSNIDRKGMLKKEKLKHMQGLLNSQNDTSNHKKQDNKEMEDGLGLTQVEKPRGIFD
# B3: Rmi1 (protein, UniProt Q02685 1-241)
# chain: MSFSSILSQDITDDITPPAYSATLGSREQIVFRAYQNEPWLAGTASNLILDKKLVIVDRELLFQVLMVENITKSKLTQIDDIKTKLDPKKQKVDRLRSGAQGNGAKKYEVITQVDMEDDGNVADNNCAKENNSNNNSSAAKNKAVFKLTLQSKSGDVFFAINSTPISWSSCMLGSKIVILPGTVFNRGVFILKDSQVIFLGGINRVWNENRDQKFCDYLESKLQRDKQLVNGGSKKRKAND
# B4: Rtt107 (protein, UniProt P38850 1-1070)
# chain: MSTSLLFEQLNFLILVAAEAELPIAHSTRKLLMDNSCNNCQIYELYNENLKDVKTDKDWFMNKFGPQTVHFVISNTINFPFYKIVYFDLLIPVVSHTWVQDSVKTKRHLRTNMYSPNPFHLLRDCQVYISKSSFNKCEYILYSDLLHLLGGTLVNYISNRTTHVIVQSPQDPIIATVSKLTFGSFSSSSTNKHTEKPLREWKFVYPIWILYHFKMAKPLKGELATLCELDMQDTSEEQLFAKWEEVIGDKQTSSSQLTLHPNKTLFKNHHFAISPDLNFFTPLYWFLKGFIEDLDGKVTPLSFSDDLKSVYQAFPDIDCYIGHSANSPILEKTKSIKPEIHVGNVSWLFYMFALQKFTPVSQCKLIHQPFHAKLFTSKELTVAYTNYFGSQRFYIQRLVEILGGLSTPELTRKNTHLITKSTIGKKFKVAKKWSLDPQNAIIVTNHMWLEQCYMNNSKLNPKDSRFQNFKLDDNMGWNIGQIGMDHSSLPTPKNLSMVTYDTQSISEKPPPTNDQMDQINDNTNVLSKKDGTPISSFENSIDEKIDKLQKISGEVAVTHSGDLERSFVSRPSRASFPVVDSKKSNLQKKDSNSDISMETEVFCEGHEKREEKEFTKPITEYDAPKKQEIREQSRKKNDIDYKKEEEETELQVQLGQRTKREIKTSKKNEKEKETNECHIEVDQMTNEKQGEESTGKLISTEDVTSKKDTDKFSHLFEGLSDNDDHINDEKPAVNSKYTTPKTSQNITSGVDTPTTAQTQVFMPSSGNSRLAKTQAAKRLHTDIESLNEFQKNFKRKRIDSEEISLSQDVERSNNNKELATKAEKILARFNELPNYDLKAVCTGCFHDGFNEVDIEILNQLGIKIFDNIKETDKLNCIFAPKILRTEKFLKSLSFEPLKFALKPEFIIDLLKQIHSKKDKLSQININLFDYEINGINESIISKTKLPTKVFERANIRCINLVNDIPGGVDTIGSVLKAHGIEKINVLRSKKCTFEDIIPNDVSKQENGGIFKYVLIVTKASQVKKFTKLINDRDKNETILIVEWNWCVESIFHLNVDFTSKKNVLYQKKNN
# B5: Top3 (protein, UniProt P13099 1-656)
# chain: MKVLCVAEKNSIAKAVSQILGGGRSTSRDSGYMYVKNYDFMFSGFPFARNGANCEVTMTSVAGHLTGIDFSHDSHGWGKCAIQELFDAPLNEIMNNNQKKIASNIKREARNADYLMIWTDCDREGEYIGWEIWQEAKRGNRLIQNDQVYRAVFSHLERQHILNAARNPSRLDMKSVHAVGTRIEIDLRAGVTFTRLLTETLRNKLRNQATMTKDGAKHRGGNKNDSQVVSYGTCQFPTLGFVVDRFERIRNFVPEEFWYIQLVVENKDNGGTTTFQWDRGHLFDRLSVLTFYETCIETAGNVAQVVDLKSKPTTKYRPLPLTTVELQKNCARYLRLNAKQSLDAAEKLYQKGFISYPRTETDTFPHAMDLKSLVEKQAQLDQLAAGGRTAWASYAASLLQPENTSNNNKFKFPRSGSHDDKAHPPIHPIVSLGPEANVSPVERRVYEYVARHFLACCSEDAKGQSMTLVLDWAVERFSASGLVVLERNFLDVYPWARWETTKQLPRLEMNALVDIAKAEMKAGTTAPPKPMTESELILLMDTNGIGTDATIAEHIDKIQVRNYVRSEKVGKETYLQPTTLGVSLVHGFEAIGLEDSFAKPFQRREMEQDLKKICEGHASKTDVVKDIVEKYRKYWHKTNACKNTLLQVYDRVKASM
# Molecular target: T1, Dpb11-K55A (bait of the affinity purification with MS) (S. cerevisiae)
# Assay: affinity purification with mass spectrometry
row,binding,Molecule
1,binds,B1

# Molecular target: T2, Dpb11 (tagged bait, overexpressed from the ADH1 promoter) (S. cerevisiae)
# Assay: affinity purification with mass spectrometry
row,binding,Molecule
1,binds,Slx4 (from UniProt Q12098 1-748)
2,binds,B2
3,binds,B3
4,binds,B1
5,binds,B4
6,binds,B5
